Assays:
rats = conditions: dose of approximately 100 mg/kg or more
SD-type SPF rats = assay: hair growth promoting action of tape preparation/lotion on shaved back of rats; type: in vivo, rat; conditions: conclusion from the tape and lotion experiments
Experimental: First, a description of a tape preparation used in the present invention will be given. […] The formulation shown in FIG. 1 was weighed out precisely into a glass vial, an appropriate amount of water was added and dilution and stirring were carried out, and then ultrasound treatment was carried out to obtain a homogeneous solution. The homogeneous solution was applied uniformly onto a 20 cm×15 cm polyethylene nonwoven cloth.
Afterthere, drying was carried out overnight at 40° C., and then a fluoropolymer coated polyester film was put on, thus obtaining the tape preparation used in the present invention.
The tape preparation obtained as described above was cut into 4 cm×3 cm pieces, thus preparing an active tape preparation. SD-type SPF rats were used as test animals. Note that the rats used in the experiment were 10 weeks or 8 weeks old.
On the day before the experiment, both the 10-week-old rats and the 8-week-old rats were anesthetized with ether, and then the hair on the back was shaved off using electric clippers and an electric shaver. Furthermore, on the day of the experiment, hair was again removed from the hair-removed sites using an electric shaver. […]

COc1cc2c(cc1OC)C(=O)C(CC1CCN(Cc3ccccc3)CC1)C2 (centres unmarked) [donepezil, 1-benzyl4-[(5,6-dimethoxy-1-indanon)-2-yl]methylpiperidine]
serious toxicity (rats): serious toxicity was not exhibited | hair growth action (overall conclusion) (SD-type SPF rats): excellent hair growth action

Source: US20050142088A1 (priority 2002, published 2005)
